In paper doi:10.1101/390351:
Results are given in words; binding and its absence hold for the method and conditions named. Binding seen in cells or lysates may run through a third protein. Here binding means that the protein was enriched with, or labelled near, the bait; the list need not be complete.

Chains of the proteins cited; added tags and fusions are not shown.
UniProt P63101: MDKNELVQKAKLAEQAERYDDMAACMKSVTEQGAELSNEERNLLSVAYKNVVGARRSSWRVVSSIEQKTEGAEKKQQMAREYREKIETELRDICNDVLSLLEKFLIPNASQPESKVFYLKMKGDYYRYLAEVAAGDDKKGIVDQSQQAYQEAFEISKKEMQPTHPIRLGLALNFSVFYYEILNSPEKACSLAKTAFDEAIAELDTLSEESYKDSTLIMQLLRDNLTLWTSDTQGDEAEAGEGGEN
UniProt P62259: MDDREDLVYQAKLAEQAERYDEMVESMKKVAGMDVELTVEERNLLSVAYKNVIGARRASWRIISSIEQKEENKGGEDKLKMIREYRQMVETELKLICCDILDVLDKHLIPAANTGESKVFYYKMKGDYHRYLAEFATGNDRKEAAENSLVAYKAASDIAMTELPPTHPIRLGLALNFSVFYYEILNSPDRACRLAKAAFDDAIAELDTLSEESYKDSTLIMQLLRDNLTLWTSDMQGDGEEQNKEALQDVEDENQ
UniProt Q8C863: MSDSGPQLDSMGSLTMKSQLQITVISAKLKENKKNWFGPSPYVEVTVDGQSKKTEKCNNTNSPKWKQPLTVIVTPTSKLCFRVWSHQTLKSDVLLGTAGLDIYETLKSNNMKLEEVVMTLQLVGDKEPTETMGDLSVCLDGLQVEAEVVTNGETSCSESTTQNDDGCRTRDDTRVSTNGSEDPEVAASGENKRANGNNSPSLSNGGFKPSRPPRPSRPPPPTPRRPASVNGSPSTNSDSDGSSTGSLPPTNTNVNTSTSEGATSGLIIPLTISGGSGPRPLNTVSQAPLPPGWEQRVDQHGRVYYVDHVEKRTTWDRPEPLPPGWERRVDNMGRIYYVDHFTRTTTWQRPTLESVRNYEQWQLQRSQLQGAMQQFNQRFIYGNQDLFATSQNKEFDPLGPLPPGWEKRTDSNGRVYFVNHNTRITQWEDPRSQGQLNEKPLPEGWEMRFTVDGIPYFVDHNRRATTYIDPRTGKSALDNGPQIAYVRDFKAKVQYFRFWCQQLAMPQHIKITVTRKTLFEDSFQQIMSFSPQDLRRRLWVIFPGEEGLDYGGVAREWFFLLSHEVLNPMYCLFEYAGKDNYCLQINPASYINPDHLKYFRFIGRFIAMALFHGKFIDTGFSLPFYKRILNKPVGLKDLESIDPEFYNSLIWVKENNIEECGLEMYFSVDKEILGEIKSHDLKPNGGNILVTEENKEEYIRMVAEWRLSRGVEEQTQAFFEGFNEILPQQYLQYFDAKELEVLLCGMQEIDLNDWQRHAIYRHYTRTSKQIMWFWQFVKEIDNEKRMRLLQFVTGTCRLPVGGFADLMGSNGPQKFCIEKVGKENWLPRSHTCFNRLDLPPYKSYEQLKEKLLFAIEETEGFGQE

T1: Cyclin B3 (mouse (endogenous in MII oocytes)) (UniProt Q810T2)
T1 sequence: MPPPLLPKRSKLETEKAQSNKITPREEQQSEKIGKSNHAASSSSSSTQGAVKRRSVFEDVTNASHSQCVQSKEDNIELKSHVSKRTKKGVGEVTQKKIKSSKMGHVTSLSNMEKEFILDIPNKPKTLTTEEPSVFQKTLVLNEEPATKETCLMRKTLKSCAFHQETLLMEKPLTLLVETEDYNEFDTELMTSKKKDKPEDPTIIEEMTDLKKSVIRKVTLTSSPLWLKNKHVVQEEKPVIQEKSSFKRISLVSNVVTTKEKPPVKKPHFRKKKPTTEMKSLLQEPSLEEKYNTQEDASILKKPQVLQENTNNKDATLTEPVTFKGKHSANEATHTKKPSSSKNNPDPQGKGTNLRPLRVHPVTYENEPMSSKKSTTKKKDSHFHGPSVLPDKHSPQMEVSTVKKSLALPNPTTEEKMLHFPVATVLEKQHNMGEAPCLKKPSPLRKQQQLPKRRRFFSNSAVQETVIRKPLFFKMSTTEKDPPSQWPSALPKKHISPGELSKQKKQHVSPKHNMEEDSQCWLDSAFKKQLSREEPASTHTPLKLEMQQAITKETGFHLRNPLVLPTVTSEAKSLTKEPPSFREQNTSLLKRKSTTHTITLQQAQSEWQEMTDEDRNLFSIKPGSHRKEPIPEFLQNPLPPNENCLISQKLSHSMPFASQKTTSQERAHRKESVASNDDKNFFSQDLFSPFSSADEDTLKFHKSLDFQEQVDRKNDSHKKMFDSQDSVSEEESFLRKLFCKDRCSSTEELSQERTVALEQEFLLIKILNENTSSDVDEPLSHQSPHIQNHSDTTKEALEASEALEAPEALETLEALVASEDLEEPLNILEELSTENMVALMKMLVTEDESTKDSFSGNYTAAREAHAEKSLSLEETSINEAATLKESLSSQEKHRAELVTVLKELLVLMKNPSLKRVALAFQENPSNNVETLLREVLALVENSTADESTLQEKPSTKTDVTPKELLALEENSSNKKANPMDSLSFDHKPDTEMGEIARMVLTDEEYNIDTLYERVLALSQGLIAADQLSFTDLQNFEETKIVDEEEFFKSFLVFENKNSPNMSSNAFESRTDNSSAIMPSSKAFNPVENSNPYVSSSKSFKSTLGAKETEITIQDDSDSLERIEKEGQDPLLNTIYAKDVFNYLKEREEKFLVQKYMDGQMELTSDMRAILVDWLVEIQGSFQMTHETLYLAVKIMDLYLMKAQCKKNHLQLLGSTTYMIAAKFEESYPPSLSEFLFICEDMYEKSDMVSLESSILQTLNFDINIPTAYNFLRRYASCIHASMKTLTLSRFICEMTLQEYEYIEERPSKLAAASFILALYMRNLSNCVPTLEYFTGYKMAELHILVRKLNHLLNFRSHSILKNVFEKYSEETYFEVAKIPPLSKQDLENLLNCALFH

B1: Ywhag (protein, UniProt P61982 1-247)
chain: MVDREQLVQKARLAEQAERYDDMAAAMKNVTELNEPLSNEERNLLSVAYKNVVGARRSSWRVISSIEQKTSADGNEKKIEMVRAYREKIEKELEAVCQDVLSLLDNYLIKNCSETQYESKVFYLKMKGDYYRYLAEVATGEKRATVVESSEKAYSEAHEISKEHMQPTHPIRLGLALNYSVFYYEIQNAPEQACHLAKTAFDDAIAELDTLNEDSYKDSTLIMQLLRDNLTLWTSDQQDDDGGEGNN
B2: Ywhab (protein, UniProt Q9CQV8 1-246)
chain: MTMDKSELVQKAKLAEQAERYDDMAAAMKAVTEQGHELSNEERNLLSVAYKNVVGARRSSWRVISSIEQKTERNEKKQQMGKEYREKIEAELQDICNDVLELLDKYLILNATQAESKVFYLKMKGDYFRYLSEVASGENKQTTVSNSQQAYQEAFEISKKEMQPTHPIRLGLALNFSVFYYEILNSPEKACSLAKTAFDEAIAELDTLNEESYKDSTLIMQLLRDNLTLWTSENQGDEGDAGEGEN

Biological target: T1, Cyclin B3 (mouse (endogenous in MII oocytes))
Test: affinity purification with mass spectrometry

| Molecule | binding |
| --- | --- |
| Ywhaz (from UniProt P63101 1-245) | binds |
| Ywhae (from UniProt P62259 1-255) | binds |
| Itch (from UniProt Q8C863 1-864) | binds |
| B1 | binds |
| B2 | binds |
